These are yes or no findings as the source states them, for the method shown. Some binding calls cover weakened binding; strength is not graded here. Sequences can lack the tags named with a protein.
Target: T1, Myc-MLX (UniProt Q9UH92)
T1 sequence: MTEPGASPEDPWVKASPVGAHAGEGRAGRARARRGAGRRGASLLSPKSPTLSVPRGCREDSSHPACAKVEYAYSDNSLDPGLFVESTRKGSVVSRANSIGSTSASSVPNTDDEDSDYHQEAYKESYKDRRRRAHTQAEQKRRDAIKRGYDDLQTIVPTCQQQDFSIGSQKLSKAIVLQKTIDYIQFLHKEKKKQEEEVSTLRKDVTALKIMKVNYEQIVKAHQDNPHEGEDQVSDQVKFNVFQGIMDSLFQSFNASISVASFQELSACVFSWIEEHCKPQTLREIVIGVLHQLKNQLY
Experiment: native gel or EMSA; 33P-end-labelled Txnip promoter probes (CAT/ChoRE-a or iCAT/ChoRE-b) mixed with 5 ug whole cell extract of HeLa cells over-expressing HA-MondoA and Myc-MLX, room temperature 30 min; 0.5 ug anti-HA, anti-Myc or anti-MLX antibody for inhibition or super-shift of the ChoRE band; 4% polyacrylamide gel

B1: HA-MondoA (protein, UniProt Q9HAP2 1-919)
chain: MAADVFMCSPRRPRSRGRQVLLKPQVSEDDDDSDTDEPSPPPASGAATPARAHASAAPPPPRAGPGREEPPRRQQIIHSGHFMVSSPHREHPPKKGYDFDTVNKQTCQTYSFGKTSSCHLSIDASLTKLFECMTLAYSGKLVSPKWKNFKGLKLQWRDKIRLNNAIWRAWYMQYLEKRKNPVCHFVTPLDGSVDVDEHRRPEAITTEGKYWKSRIEIVIREYHKWRTYFKKRLQQHKDEDLSSLVQDDDMLYWHKHGDGWKTPVPMEEDPLLDTDMLMSEFSDTLFSTLSSHQPVAWPNPREIAHLGNADMIQPGLIPLQPNLDFMDTFEPFQDLFSSSRSIFGSMLPASASAPVPDPNNPPAQESILPTTALPTVSLPDSLIAPPTAPSLAHMDEQGCEHTSRTEDPFIQPTDFGPSEPPLSVPQPFLPVFTMPLLSPSPAPPPISPVLPLVPPPATALNPPAPPTFHQPQKFAGVNKAPSVITHTASATLTHDAPATTFSQSQGLVITTHHPAPSAAPCGLALSPVTRPPQPRLTFVHPKPVSLTGGRPKQPHKIVPAPKPEPVSLVLKNARIAPAAFSGQPQAVIMTSGPLKREGMLASTVSQSNVVIAPAAIARAPGVPEFHSSILVTDLGHGTSSPPAPVSRLFPSTAQDPLGKGEQVPLHGGSPQVTVTGPSRDCPNSGQASPCASEQSPSPQSPQNNCSGKSDPKNVAALKNRQMKHISAEQKRRFNIKMCFDMLNSLISNNSKLTSHAITLQKTVEYITKLQQERGQMQEEARRLREEIEELNATIISCQQLLPATGVPVTRRQFDHMKDMFDEYVKTRTLQNWKFWIFSIIIKPLFESFKGMVSTSSLEELHRTALSWLDQHCSLPILRPMVLSTLRQLSTSTSILTDPAQLPEQASKAVTRIGKRLGES
binding: binds
